Test results: doi:10.1101/2025.02.10.637573 (bioRxiv, 2025)
Changes are numbered by the printed parent chain. No constants are given. Whether binding was seen depends on the method and setting. Binding seen in cells or lysates may run through a third protein. Binding calls can cover weak binding; strength is not graded here.

What was measured:
Experiment in all cases: pull-down
[1] = biological target: T1, Vps74 Loop1 variant (87AAAA90) (yeast) (UniProt Q06385)
T1 sequence: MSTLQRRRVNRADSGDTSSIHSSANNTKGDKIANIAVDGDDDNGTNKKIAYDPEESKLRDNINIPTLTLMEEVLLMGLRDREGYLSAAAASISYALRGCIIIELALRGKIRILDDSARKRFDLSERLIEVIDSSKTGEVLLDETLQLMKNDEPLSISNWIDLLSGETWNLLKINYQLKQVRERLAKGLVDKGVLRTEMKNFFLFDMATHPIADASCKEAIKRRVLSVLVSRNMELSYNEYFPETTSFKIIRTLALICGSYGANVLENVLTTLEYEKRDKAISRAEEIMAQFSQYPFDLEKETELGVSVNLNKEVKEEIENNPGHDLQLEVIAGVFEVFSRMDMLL

[2] = biological target: T2, Vps74 (bacterially expressed, as used in the in vitro mixing assays) (yeast) (UniProt Q06385)
T2 sequence: T1 sequence with A87F, A88W, A89N, A90D

[3] = biological target: T3, Vps74 Loop2 variant (166AAA168) (yeast) (UniProt Q06385)
T3 sequence: T1 sequence with A87F, A88W, A89N, A90D, E166A, T167A, W168A

Measured: binding

soluble domain of Sac1 (from UniProt P32368) (domain or fragment)
binds: all assays above
